Measured values: patent US20240301431

Tested on: TNF-α
Test: binding assay
Conditions: 3'-thiol, PBS pH 8.2, 5 mM Mg2+, 37 C, purified recombinant protein, single-stranded DNA

ACCTGGGGGAGTATTGCGGAGGAAGGTTTTTTTTGACTTGGTGCAGACGATGGCAGGGTTTTTTT
binding result (conjugated to ~15 nm gold nanoparticle (44 aptamers per particle), TNF-α capture by centrifugation, supernatant enzyme immunoassay, no capture with or without H2O2): no binding

ACCTGGGGGAGTATTGCGGAGGAAGGTTTTTTTTGACTTGGTGCAGACGATGGCAGGGTTTTTTT [Au-Ctrl-ATP-pPBA]
binding result (conjugated to gold nanoparticle, coated with poly(phenylboronic acid) via ATP, no TNF-α capture with or without 100 uM H2O2): no binding

ACCTGGGGGAGTATTGCGGAGGAAGGTTTTTTTTGGTGGATGGCGCAGTCGGCGACAATTTTTTT [Au-Apt (TNF-α/ATP fused aptamer on gold nanoparticle)]
binding result (conjugated to ~15 nm gold nanoparticle (53 aptamers per particle), TNF-α capture by centrifugation, supernatant enzyme immunoassay, 4 h, aptamer:TNF-α 10000:1, not reduced by simple mixing with pPBA): binds

ACCTGGGGGAGTATTGCGGAGGAAGGTTTTTTTTGGTGGATGGCGCAGTCGGCGACAATTTTTTT [Au-Apt-ATP-pPBA]
binding result (conjugated to gold nanoparticle, coated with poly(phenylboronic acid) via ATP, TNF-α capture remarkably reduced by pPBA coating, restored with 100 uM H2O2): binds more weakly

The exact form of at least one protein or probe is not confirmed. Negatives hold for the conditions tested. The comparison behind a weaker result is the experiment's own reference, which may not be listed here.
